Experimental data from PMC3572039.

Molecular target: T1, MBP-Δ116 (truncated XydR response regulator) del1-116 (UniProt B8I0K9)
T1 sequence (looked up): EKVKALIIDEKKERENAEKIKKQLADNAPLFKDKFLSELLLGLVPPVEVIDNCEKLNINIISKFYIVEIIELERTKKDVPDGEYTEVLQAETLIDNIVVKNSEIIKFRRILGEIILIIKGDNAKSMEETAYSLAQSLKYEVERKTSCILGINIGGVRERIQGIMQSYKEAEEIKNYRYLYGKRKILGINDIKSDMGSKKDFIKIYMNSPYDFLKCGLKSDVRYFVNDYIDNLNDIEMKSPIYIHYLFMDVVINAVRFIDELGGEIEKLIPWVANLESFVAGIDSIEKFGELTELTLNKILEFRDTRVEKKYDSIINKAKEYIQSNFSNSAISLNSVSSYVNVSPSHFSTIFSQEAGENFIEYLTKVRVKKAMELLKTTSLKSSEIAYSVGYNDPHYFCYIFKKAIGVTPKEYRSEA
Test: EMSA
Conditions: 10 mM Tris pH 7.5, 150 mM KCl, 1 mM DTT, 30 ng/uL salmon sperm DNA, 0.1 ug/uL BSA, 0.05% NP-40, 2.5% glycerol, 20 C, 20 min; 20 fmol probe; 5% native PAGE; recombinant protein; residues 117-532; protein details: N-terminal MBP (pMAL-c2x); label: 3' biotin; probe letters rebuilt from the primers and the genome

“GAGGGACACTTCTTACAGGCGGAGTAGGTAATGTGGTTGGAAGCTTGTTTGGAGTAATGATAAAGGGTACAATAGAATCAATAATAACATTTCAGGGTACATTGTCCTCATGGTGGACAAAAATTGCAATAGCGGCCCTCCTTTGCATATTTATTATACTCCAGAGTATATTCGCAGCATTAAAGAGAAAGAGGCAGTTTTAACACTGTCTCTTTCAGTGCCCTCTTGCTTGAAGTACAAATGAGAGGAGAAATGTTAATGAAAATAAAAAAATATTTAGGTGTATCATTAAAATCAAAGATGAGAGCT (double strand) [R1 (upstream Ccel_1227)]”: no binding.

A negative result means that nothing was seen under these conditions. Tags and fusion partners may be left off the protein sequences shown.
